Data as given in PubChem BioAssay AID1259308 (NCATS, 2017).
Here is one part, drawn at random, of about 59,000 deposited reagents. In the full data, about 1,510 (2.6%) are marked active. 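Calls use total luciferase alone and ignore viability, so some active siRNAs may act by altering cell number.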 Unmarked entries are inactive. The numbers tell different reagents against one gene apart.

Aim: 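Knock-downs that increase output of a recombinant reporter protein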 (primary screen)
Cells: human HEK293 embryonic kidney cells stably expressing firefly luciferase (HEK-CMV-Luc2-Hygro)
Reagent: single siRNA against human genes, 0.8 pmol siRNA per well
Time to read-out: 72 h
Measurement: 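Reporter luminescence and viable-cell signal on separate replicate plates, given as percent of non-targeting control and median/MAD z-scores, plus per-cell luciferase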
Scale: total luciferase, z-score and total luciferase, % of control: higher = more reporter protein produced; luciferase per cell, z-score: higher = more reporter output per viable cell; viable cells, % of control: higher = more viable cells
Active means: 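Active when the median/MAD z-score for overall luciferase is greater than 3; a gene was taken forward for validation with new siRNAs if at least two of its three siRNAs passed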
Calls: active = raised luciferase; inactive = no rise

no.	gene symbol	reagent no.	total luciferase, z-score	total luciferase, % of control	luciferase per cell, z-score	viable cells, % of control
1	TRIM61 (tripartite motif containing 61)	1	-1.31	55.9	-1.77	99.6
2	TRIM61 (tripartite motif containing 61)	2	0.00158	81.9	0.498	80.3
3	TRIM61 (tripartite motif containing 61)	3	-0.779	66.4	-1.03	97.3
4	UGT8 (UDP glycosyltransferase 8)	1	0.851	98.8	0.345	101
5	UGT8 (UDP glycosyltransferase 8)	2	-0.0394	81.1	-0.264	97.2
6	UGT8 (UDP glycosyltransferase 8)	3	-0.956	62.9	-0.312	76.3
7	HPCAL4 (hippocalcin like 4)	1	-0.304	75.8	-0.308	91.9
8	HPCAL4 (hippocalcin like 4)	2	0.123	84.3	1.75	59.4
9	HPCAL4 (hippocalcin like 4)	3	-0.117	79.6	0.954	69.2
10	PABPN1L (PABPN1 like, cytoplasmic)	1	-1.21	57.9	-0.725	78.3
11	PABPN1L (PABPN1 like, cytoplasmic)	2	2.14	124	0.93	109
12	PABPN1L (PABPN1 like, cytoplasmic)	3	-1.52	51.7	-1.79	92.6
13	PLA2G10 (phospholipase A2 group X)	1	-1.29	56.3	-0.777	77.1
14	PLA2G10 (phospholipase A2 group X)	2	2.08	123	0.655	116
15	PLA2G10 (phospholipase A2 group X)	3	0.122	84.3	-0.32	102
16	ABCB11 (ATP binding cassette subfamily B member 11)	1	-0.727	67.4	-1.02	98.5
17	ABCB11 (ATP binding cassette subfamily B member 11)	2	-0.193	78	-0.801	108
18	ABCB11 (ATP binding cassette subfamily B member 11)	3	-0.123	79.4	-0.373	97.9
19	NEK11 (NIMA related kinase 11)	1	-0.403	73.9	-0.243	88
20	NEK11 (NIMA related kinase 11)	2	-0.87	64.6	-1.4	104
21	NEK11 (NIMA related kinase 11)	3	1.66	115	2.44	67.6
22	BLVRB (biliverdin reductase B)	1	-1.29	56.2	-2.12	110
23	BLVRB (biliverdin reductase B)	2	-0.738	67.2	-1.13	101
24	BLVRB (biliverdin reductase B)	3	-0.589	70.2	-0.751	95.6
25	RFTN1 (raftlin, lipid raft linker 1)	1	0.386	89.6	-0.0299	101
26	RFTN1 (raftlin, lipid raft linker 1)	2	1.03	102	0.845	91.6
27	RFTN1 (raftlin, lipid raft linker 1)	3	1.64	114	1.94	76.6

Looked up above.
TRIM61 (tripartite motif containing 61) #1, luciferase per cell, z-score → -1.77
TRIM61 (tripartite motif containing 61) #3, viable cells, % of control: 97.3
For “total luciferase, % of control”, PLA2G10 (phospholipase A2 group X) #3 reads 84.3

The results go on:
no.	gene symbol	reagent no.	total luciferase, z-score	total luciferase, % of control	luciferase per cell, z-score	viable cells, % of control
28	SCTR (secretin receptor)	1	-0.651	68.9	0.459	68.3
29	SCTR (secretin receptor)	2	-0.267	76.6	-0.355	94
30	SCTR (secretin receptor)	3	0.621	94.2	0.125	102
31	DBT (dihydrolipoamide branched chain transacylase E2)	1	0.137	84.6	0.468	83.6
32	DBT (dihydrolipoamide branched chain transacylase E2)	2	-0.22	77.5	-0.606	102
33	DBT (dihydrolipoamide branched chain transacylase E2)	3	0.718	96.2	-0.0465	109
34	C2CD3 (C2 domain containing 3 centriole elongation regulator)	1	-0.265	76.6	0.247	80.2
35	C2CD3 (C2 domain containing 3 centriole elongation regulator)	2	0.2	85.9	-0.36	105
36	C2CD3 (C2 domain containing 3 centriole elongation regulator)	3	-1.77	46.7	-2.28	95.1
37	ADK (adenosine kinase)	1	-0.175	78.4	0.0445	86.6
38	ADK (adenosine kinase)	2	2.19	125	1.52	93.8
39	ADK (adenosine kinase)	3	-0.367	74.6	-1.13	112
40	NRSN1 (neurensin 1)	1	0.475	91.3	-0.134	106
41	NRSN1 (neurensin 1)	2	-2.11	39.9	-1.4	64.3
42	NRSN1 (neurensin 1)	3	-1.08	60.4	-1.28	94.6
43	LINC00312 (long independently transcribed non-coding RNA 312)	1	0.00519	82	0.49	80.5
44	LINC00312 (long independently transcribed non-coding RNA 312)	2	1.04	103	0.833	92.1
45	LINC00312 (long independently transcribed non-coding RNA 312)	3	1.07	103	1.47	78.2
46	GDI1 (GDP dissociation inhibitor 1)	1	1.04	103	1.35	80.3
47	GDI1 (GDP dissociation inhibitor 1)	2	0.423	90.3	-0.542	116
48	GDI1 (GDP dissociation inhibitor 1)	3	1.97	121	1.26	97.2
49	TOX4 (TOX high mobility group box family member 4)	1	0.717	96.1	-0.0585	109
50	TOX4 (TOX high mobility group box family member 4)	2	0.337	88.6	1.18	72.5
51	TOX4 (TOX high mobility group box family member 4)	3	-0.776	66.4	-1.35	106
52	RMI2 (RecQ mediated genome instability 2)	1	2.22	126	2.16	79.9
53	RMI2 (RecQ mediated genome instability 2)	2	2.43	130	2.56	74.3
54	RMI2 (RecQ mediated genome instability 2)	3	0.266	87.2	-0.412	109
55	TTC38 (tetratricopeptide repeat domain 38)	1	-1.52	51.6	-1.27	80.6
56	TTC38 (tetratricopeptide repeat domain 38)	2	0.401	89.9	-0.327	109
57	TTC38 (tetratricopeptide repeat domain 38)	3	1.13	104	1.73	73.8
